PubChem BioAssay AID743121, NCATS – 2013

Screen: 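Partners whose loss is lethal together with topoisomerase I blockade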 (primary screen)
System: MDA-MB-231 cells, a human breast cancer line
Knock-down reagent: single siRNA against human genes, 20 nM siRNA (0.8 pmol per well)
Time to read-out: 120 h (drug added 48 h after transfection, read 72 h later)
Challenge: camptothecin 20 nM (about EC30) for 72 h; vehicle 0.1% DMSO in parallel plates
Read-out: 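Cell viability by ATP luminescence (CellTiter-Glo) as % of non-targeting siRNA wells, and the log2 ratio of viability without drug over viability with camptothecin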
Direction: log2 vehicle/camptothecin viability: higher = stronger sensitisation to camptothecin
Rule for the call: 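Active genes have an RSA gene-level p-value below 0.001, computed from the ratios of their separate siRNAs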
Shown is a random part of about 26,000 reagents tested. 167 of them (0.63%) count as active. 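Calls are per gene from RSA p-values that are not deposited; an individual active-marked siRNA can sensitise only weakly.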 Reagents against one gene are numbered here. Further read-outs or replicates are left out here.

CXCR6 (C-X-C motif chemokine receptor 6) #1 | log2 vehicle/camptothecin viability: -0.062; Outcome: inactive
CXCR6 (C-X-C motif chemokine receptor 6) #2 | log2 vehicle/camptothecin viability: 0.0324; Outcome: inactive
CXCR6 (C-X-C motif chemokine receptor 6) #3 | log2 vehicle/camptothecin viability: 0.21; Outcome: inactive
CXCR6 (C-X-C motif chemokine receptor 6) #4 | log2 vehicle/camptothecin viability: -0.0422; Outcome: inactive
P2RY13 (purinergic receptor P2Y13) #1 | log2 vehicle/camptothecin viability: -0.277; Outcome: inactive
P2RY13 (purinergic receptor P2Y13) #2 | log2 vehicle/camptothecin viability: -0.0866; Outcome: inactive
P2RY13 (purinergic receptor P2Y13) #3 | log2 vehicle/camptothecin viability: 0.0831; Outcome: inactive
P2RY13 (purinergic receptor P2Y13) #4 | log2 vehicle/camptothecin viability: -0.268; Outcome: inactive
GH2 (growth hormone 2) #1 | log2 vehicle/camptothecin viability: 0.168; Outcome: inactive
GH2 (growth hormone 2) #2 | log2 vehicle/camptothecin viability: 0.204; Outcome: inactive
GH2 (growth hormone 2) #3 | log2 vehicle/camptothecin viability: -0.258; Outcome: inactive
ADAM15 (ADAM metallopeptidase domain 15) #1 | log2 vehicle/camptothecin viability: -0.346; Outcome: inactive
ADAM15 (ADAM metallopeptidase domain 15) #2 | log2 vehicle/camptothecin viability: -0.0832; Outcome: inactive
ADAM15 (ADAM metallopeptidase domain 15) #3 | log2 vehicle/camptothecin viability: -0.135; Outcome: inactive
ADAM15 (ADAM metallopeptidase domain 15) #4 | log2 vehicle/camptothecin viability: 0.155; Outcome: inactive
NPEPL1 (aminopeptidase like 1) #1 | log2 vehicle/camptothecin viability: -0.0914; Outcome: inactive
NPEPL1 (aminopeptidase like 1) #2 | log2 vehicle/camptothecin viability: 0.0157; Outcome: inactive
NPEPL1 (aminopeptidase like 1) #3 | log2 vehicle/camptothecin viability: -0.272; Outcome: inactive
DHODH (dihydroorotate dehydrogenase (quinone)) #1 | log2 vehicle/camptothecin viability: -0.502; Outcome: inactive
DHODH (dihydroorotate dehydrogenase (quinone)) #2 | log2 vehicle/camptothecin viability: -0.304; Outcome: inactive
DHODH (dihydroorotate dehydrogenase (quinone)) #3 | log2 vehicle/camptothecin viability: -0.46; Outcome: inactive
PDPN (podoplanin) #1 | log2 vehicle/camptothecin viability: -0.617; Outcome: inactive
PDPN (podoplanin) #2 | log2 vehicle/camptothecin viability: -0.0779; Outcome: inactive
PDPN (podoplanin) #3 | log2 vehicle/camptothecin viability: -0.304; Outcome: inactive
PDPN (podoplanin) #4 | log2 vehicle/camptothecin viability: 0.18; Outcome: inactive
RAB3C (RAB3C, member RAS oncogene family) #1 | log2 vehicle/camptothecin viability: 0.0338; Outcome: inactive
RAB3C (RAB3C, member RAS oncogene family) #2 | log2 vehicle/camptothecin viability: -0.33; Outcome: inactive
RAB3C (RAB3C, member RAS oncogene family) #3 | log2 vehicle/camptothecin viability: -0.607; Outcome: inactive
PIK3AP1 (phosphoinositide-3-kinase adaptor protein 1) #1 | log2 vehicle/camptothecin viability: -0.105; Outcome: inactive
PIK3AP1 (phosphoinositide-3-kinase adaptor protein 1) #2 | log2 vehicle/camptothecin viability: -0.428; Outcome: inactive
PIK3AP1 (phosphoinositide-3-kinase adaptor protein 1) #3 | log2 vehicle/camptothecin viability: -0.65; Outcome: inactive
PIK3AP1 (phosphoinositide-3-kinase adaptor protein 1) #4 | log2 vehicle/camptothecin viability: -0.412; Outcome: inactive
ST14 (ST14 transmembrane serine protease matriptase) #1 | log2 vehicle/camptothecin viability: 0.0839; Outcome: inactive
ST14 (ST14 transmembrane serine protease matriptase) #2 | log2 vehicle/camptothecin viability: 1.2; Outcome: inactive
ST14 (ST14 transmembrane serine protease matriptase) #3 | log2 vehicle/camptothecin viability: -0.52; Outcome: inactive
EHD1 (EH domain containing 1) #1 | log2 vehicle/camptothecin viability: 0.0803; Outcome: inactive
EHD1 (EH domain containing 1) #2 | log2 vehicle/camptothecin viability: -0.597; Outcome: inactive
EHD1 (EH domain containing 1) #3 | log2 vehicle/camptothecin viability: -0.107; Outcome: inactive
EHD1 (EH domain containing 1) #4 | log2 vehicle/camptothecin viability: 0.664; Outcome: inactive
NETO1 (neuropilin and tolloid like 1) #1 | log2 vehicle/camptothecin viability: -0.273; Outcome: inactive
NETO1 (neuropilin and tolloid like 1) #2 | log2 vehicle/camptothecin viability: 0.0476; Outcome: inactive
NETO1 (neuropilin and tolloid like 1) #3 | log2 vehicle/camptothecin viability: -0.202; Outcome: inactive
NETO1 (neuropilin and tolloid like 1) #4 | log2 vehicle/camptothecin viability: -0.131; Outcome: inactive
FBXW5 (F-box and WD repeat domain containing 5) #1 | log2 vehicle/camptothecin viability: 0.104; Outcome: inactive
FBXW5 (F-box and WD repeat domain containing 5) #2 | log2 vehicle/camptothecin viability: -0.122; Outcome: inactive
FBXW5 (F-box and WD repeat domain containing 5) #3 | log2 vehicle/camptothecin viability: -0.152; Outcome: inactive
FBXW5 (F-box and WD repeat domain containing 5) #4 | log2 vehicle/camptothecin viability: 0.0751; Outcome: inactive

Laid out differently: 6 of the entries above
gene,reagent no.,log2 vehicle/camptothecin viability,Outcome
DHODH (dihydroorotate dehydrogenase (quinone)),3,-0.46,inactive
PDPN (podoplanin),1,-0.617,inactive
PDPN (podoplanin),2,-0.0779,inactive
PDPN (podoplanin),3,-0.304,inactive
PDPN (podoplanin),4,0.18,inactive
"RAB3C (RAB3C, member RAS oncogene family)",1,0.0338,inactive
